# The supplement of paper PMC8728848
# This is one part of the list.
# Tests used:
# Assay in all cases: glycan array binding signal (z-score within array); higher = stronger binding
# Details in all cases: glycan notation: IUPAC condensed, linker removed
# [1] = target: Gal(b1-4)GlcNAc(b1-3)Gal(b1-4)GlcNAc(b1-3)Gal(b1-4)GlcNAc(b1-2)Man(a1-3)[Gal(b1-4)GlcNAc(b1-3)Gal(b1-4)GlcNAc(b1-3)Gal(b1-4)GlcNAc(b1-2)Man(a1-6)]Man(b1-4)GlcNAc(b1-4)GlcNAc
# Procedure, shortened: (§1)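 The binding signal is a Z-score computed within each array. Data were drawn from 3228 arrays in the Consortium for Functional Glycomics database, restricted to those with a known protein sequence. Scores were averaged over arrays of the same protein sequence at different concentrations or buffers, and over linkers, and negative values can be taken as non-binding.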
# [2] = target: Gal(b1-4)GlcNAc(b1-3)Gal(b1-4)GlcNAc(b1-3)Gal(b1-4)GlcNAc(b1-2)Man(a1-3)[Gal(b1-4)GlcNAc(b1-3)Gal(b1-4)GlcNAc(b1-3)Gal(b1-4)GlcNAc(b1-2)Man(a1-6)]Man(b1-4)GlcNAc(b1-4)[Fuc(a1-6)]GlcNAc
# Procedure, shortened: as §1
# [3] = target: Gal(b1-4)GlcNAc(b1-3)Gal(b1-4)GlcNAc(b1-3)Gal(b1-4)GlcNAc(b1-2)[Gal(b1-4)GlcNAc(b1-3)Gal(b1-4)GlcNAc(b1-3)Gal(b1-4)GlcNAc(b1-6)]Man(a1-6)[Gal(b1-4)GlcNAc(b1-3)Gal(b1-4)GlcNAc(b1-3)Gal(b1-4)GlcNAc(b1-2)Man(a1-3)]Man(b1-4)GlcNAc(b1-4)[Fuc(a1-6)]GlcNAc
# Procedure, shortened: as §1
# [4] = target: Gal(b1-4)GlcNAc(b1-3)Gal(b1-4)GlcNAc(b1-3)Gal(b1-4)GlcNAc(b1-3)Gal(b1-4)GlcNAc(b1-2)Man(a1-3)[Gal(b1-4)GlcNAc(b1-3)Gal(b1-4)GlcNAc(b1-3)Gal(b1-4)GlcNAc(b1-3)Gal(b1-4)GlcNAc(b1-2)Man(a1-6)]Man(b1-4)GlcNAc(b1-4)GlcNAc
# Procedure, shortened: as §1
# [5] = target: Gal(b1-4)GlcNAc(b1-3)Gal(b1-4)GlcNAc(b1-3)Gal(b1-4)GlcNAc(b1-3)Gal(b1-4)GlcNAc(b1-2)Man(a1-3)[Gal(b1-4)GlcNAc(b1-3)Gal(b1-4)GlcNAc(b1-3)Gal(b1-4)GlcNAc(b1-3)Gal(b1-4)GlcNAc(b1-2)Man(a1-6)]Man(b1-4)GlcNAc(b1-4)[Fuc(a1-6)]GlcNAc
# Procedure, shortened: as §1
# [6] = target: Gal(b1-4)GlcNAc(b1-3)Gal(b1-4)GlcNAc(b1-3)Gal(b1-4)GlcNAc(b1-3)Gal(b1-4)GlcNAc(b1-2)[Gal(b1-4)GlcNAc(b1-3)Gal(b1-4)GlcNAc(b1-3)Gal(b1-4)GlcNAc(b1-3)Gal(b1-4)GlcNAc(b1-6)]Man(a1-6)[Gal(b1-4)GlcNAc(b1-3)Gal(b1-4)GlcNAc(b1-3)Gal(b1-4)GlcNAc(b1-3)Gal(b1-4)GlcNAc(b1-2)Man(a1-3)]Man(b1-4)GlcNAc(b1-4)[Fuc(a1-6)]GlcNAc
# Procedure, shortened: as §1
# [7] = target: Gal(b1-4)GlcNAc(b1-3)Gal(b1-4)GlcNAc(b1-3)Gal(b1-4)GlcNAc(b1-3)Gal(b1-4)GlcNAc(b1-3)Gal(b1-4)GlcNAc(b1-2)Man(a1-3)[Gal(b1-4)GlcNAc(b1-3)Gal(b1-4)GlcNAc(b1-3)Gal(b1-4)GlcNAc(b1-3)Gal(b1-4)GlcNAc(b1-3)Gal(b1-4)GlcNAc(b1-2)Man(a1-6)]Man(b1-4)GlcNAc(b1-4)GlcNAc
# Procedure, shortened: as §1
# [8] = target: Gal(b1-4)GlcNAc(b1-3)Gal(b1-4)GlcNAc(b1-3)Gal(b1-4)GlcNAc(b1-3)Gal(b1-4)GlcNAc(b1-3)Gal(b1-4)GlcNAc(b1-2)Man(a1-3)[Gal(b1-4)GlcNAc(b1-3)Gal(b1-4)GlcNAc(b1-3)Gal(b1-4)GlcNAc(b1-3)Gal(b1-4)GlcNAc(b1-3)Gal(b1-4)GlcNAc(b1-2)Man(a1-6)]Man(b1-4)GlcNAc(b1-4)[Fuc(a1-6)]GlcNAc
# Procedure, shortened: as §1
# [9] = target: Gal(b1-4)GlcNAc(b1-3)Gal(b1-4)GlcNAc(b1-3)Gal(b1-4)GlcNAc(b1-3)Gal(b1-4)GlcNAc(b1-3)Gal(b1-4)GlcNAc(b1-2)[Gal(b1-4)GlcNAc(b1-3)Gal(b1-4)GlcNAc(b1-3)Gal(b1-4)GlcNAc(b1-3)Gal(b1-4)GlcNAc(b1-3)Gal(b1-4)GlcNAc(b1-6)]Man(a1-6)[Gal(b1-4)GlcNAc(b1-3)Gal(b1-4)GlcNAc(b1-3)Gal(b1-4)GlcNAc(b1-3)Gal(b1-4)GlcNAc(b1-3)Gal(b1-4)GlcNAc(b1-2)Man(a1-3)]Man(b1-4)GlcNAc(b1-4)[Fuc(a1-6)]GlcNAc
# Procedure, shortened: as §1
# [10] = target: Gal(b1-4)GlcNAc(b1-3)Gal(b1-4)GlcNAc(b1-3)Gal(b1-4)GlcNAc(b1-3)Gal(b1-4)GlcNAc(b1-3)Gal(b1-4)GlcNAc(b1-3)Gal(b1-4)GlcNAc(b1-2)Man(a1-3)[Gal(b1-4)GlcNAc(b1-3)Gal(b1-4)GlcNAc(b1-3)Gal(b1-4)GlcNAc(b1-3)Gal(b1-4)GlcNAc(b1-3)Gal(b1-4)GlcNAc(b1-3)Gal(b1-4)GlcNAc(b1-2)Man(a1-6)]Man(b1-4)GlcNAc(b1-4)GlcNAc
# Procedure, shortened: as §1
# [11] = target: Gal(b1-4)GlcNAc(b1-3)Gal(b1-4)GlcNAc(b1-3)GalNAc
# Procedure, shortened: as §1
# [12] = target: Gal(b1-4)GlcNAc(b1-3)Gal(b1-4)GlcNAc(b1-3)[Gal(b1-4)GlcNAc(b1-3)Gal(b1-4)GlcNAc(b1-6)]GalNAc
# Procedure, shortened: as §1
# [13] = target: Gal(b1-4)GlcNAc(b1-3)Gal(b1-4)GlcNAc(b1-6)[Gal(b1-3)]GalNAc
# Procedure, shortened: as §1
# [14] = target: Gal(b1-4)GlcNAc(b1-3)Gal(b1-4)[Fuc(a1-3)GlcNAc(b1-6)]Gal(b1-4)Glc
# Procedure, shortened: as §1
# [15] = target: Gal(b1-4)GlcNAc(b1-3)Gal(b1-4)[Fuc(a1-3)]GlcNAc(b1-3)Gal(b1-4)[Fuc(a1-3)]GlcNAc
# Procedure, shortened: as §1
# [16] = target: Gal(b1-4)GlcNAc(b1-3)GalNAc
# Procedure, shortened: as §1
# [17] = target: Gal(b1-4)GlcNAc(b1-3)[Fuc(a1-3)GlcNAc(b1-6)]Gal(b1-4)Glc
# Procedure, shortened: as §1
# [18] = target: Gal(b1-4)GlcNAc(b1-3)[Gal(b1-4)GlcNAc(b1-6)]Gal(b1-4)GlcNAc
# Procedure, shortened: as §1
# [19] = target: Gal(b1-4)GlcNAc(b1-3)[Gal(b1-4)GlcNAc(b1-6)]GalNAc
# Procedure, shortened: as §1
# [20] = target: Gal(b1-4)GlcNAc(b1-3)[GlcNAc(b1-6)]Gal(b1-4)GlcNAc
# Procedure, shortened: as §1
# [21] = target: Gal(b1-4)GlcNAc(b1-6)Gal(b1-4)GlcNAc
# Procedure, shortened: as §1
# [22] = target: Gal(b1-4)GlcNAc(b1-6)GalNAc
# Procedure, shortened: as §1
# [23] = target: Gal(b1-4)GlcNAc(b1-6)[Gal(b1-3)]GalNAc
# Procedure, shortened: as §1
# [24] = target: Gal(b1-4)GlcNAc(b1-6)[Gal(b1-4)GlcNAc(b1-3)]GalNAc
# Procedure, shortened: as §1
# Gal(b1-4)GlcNAc6P = target: Gal(b1-4)GlcNAc6P
# Procedure, shortened: as §1
# Gal(b1-6)Gal = target: Gal(b1-6)Gal
# Procedure, shortened: as §1
# Gal3S(b1-3)GalNAc = target: Gal3S(b1-3)GalNAc
# Procedure, shortened: as §1
# Gal3S(b1-3)GlcNAc = target: Gal3S(b1-3)GlcNAc
# Procedure, shortened: as §1
# [25] = target: Gal3S(b1-3)[Fuc(a1-4)]GlcNAc
# Procedure, shortened: as §1
# Gal3S(b1-4)Glc = target: Gal3S(b1-4)Glc
# Procedure, shortened: as §1
# Gal3S(b1-4)Glc6S = target: Gal3S(b1-4)Glc6S
# Procedure, shortened: as §1
# Gal3S(b1-4)GlcNAc = target: Gal3S(b1-4)GlcNAc
# Procedure, shortened: as §1
# Gal3S(b1-4)GlcNAc6S = target: Gal3S(b1-4)GlcNAc6S
# Procedure, shortened: as §1
# [26] = target: Gal3S(b1-4)[Fuc(a1-3)]Glc
# Procedure, shortened: as §1
# [27] = target: Gal3S(b1-4)[Fuc(a1-3)]Glc6S
# Procedure, shortened: as §1
# [28] = target: Gal3S(b1-4)[Fuc(a1-3)]GlcNAc
# Procedure, shortened: as §1
# [29] = target: Gal3S(b1-4)[Fuc(a1-3)]GlcNAc6S
# Procedure, shortened: as §1
binder,measurement,setting,value
"Flo1 (Saccharomyces cerevisiae), P32768 (protein) SGATEACLPAGQRKSGMNINFYQYSLKDSSTYSNAAYMAYGYASKTKLGSVGGQTDISIDYNIPCVSSSGTFPCPQEDSYGNWGCKGMGACSNSQGIAYWSTDLFGFYTTPTNVTLEMTGYFLPPQTGSYTFKFATVDDSAILSVGGATAFNCCAQQQPPITSTNFTIDGIKPWGGSLPPNIEGTVYMYAGYYYPMKVVYSNAVSWGTLPISVTLPDGTTVSDDFEGYVYSFDDDLSQSNCTVPDPSNY",glycan array binding signal (z-score),[1],0.163
same,glycan array binding signal (z-score),[2],-0.339
same,glycan array binding signal (z-score),[3],0.302
same,glycan array binding signal (z-score),[4],0.181
same,glycan array binding signal (z-score),[5],0.264
same,glycan array binding signal (z-score),[6],1.44
same,glycan array binding signal (z-score),[7],0.035
same,glycan array binding signal (z-score),[8],-0.23
same,glycan array binding signal (z-score),[9],0.006
same,glycan array binding signal (z-score),[10],0.026
same,glycan array binding signal (z-score),[11],-0.627
same,glycan array binding signal (z-score),[12],-0.342
same,glycan array binding signal (z-score),[13],-0.496
same,glycan array binding signal (z-score),[14],-0.778
same,glycan array binding signal (z-score),[15],-0.079
same,glycan array binding signal (z-score),[16],-0.3
same,glycan array binding signal (z-score),[17],-1.03
same,glycan array binding signal (z-score),[18],-0.428
same,glycan array binding signal (z-score),[19],-0.354
same,glycan array binding signal (z-score),[20],-0.186
same,glycan array binding signal (z-score),[21],-0.551
same,glycan array binding signal (z-score),[22],0.225
same,glycan array binding signal (z-score),[23],-0.758
same,glycan array binding signal (z-score),[24],-0.029
same,glycan array binding signal (z-score),Gal(b1-4)GlcNAc6P,0.128
same,glycan array binding signal (z-score),Gal(b1-6)Gal,-0.618
same,glycan array binding signal (z-score),Gal3S(b1-3)GalNAc,-0.392
same,glycan array binding signal (z-score),Gal3S(b1-3)GlcNAc,-0.339
same,glycan array binding signal (z-score),[25],-0.316
same,glycan array binding signal (z-score),Gal3S(b1-4)Glc,0.086
same,glycan array binding signal (z-score),Gal3S(b1-4)Glc6S,-0.381
same,glycan array binding signal (z-score),Gal3S(b1-4)GlcNAc,-0.726
same,glycan array binding signal (z-score),Gal3S(b1-4)GlcNAc6S,-0.289
same,glycan array binding signal (z-score),[26],0.7
same,glycan array binding signal (z-score),[27],1.48
same,glycan array binding signal (z-score),[28],-0.778
same,glycan array binding signal (z-score),[29],-0.547

# Three entries picked at random from the list so far:
binder,measurement,setting,value
"Flo1 (Saccharomyces cerevisiae), P32768 (protein) SGATEACLPAGQRKSGMNINFYQYSLKDSSTYSNAAYMAYGYASKTKLGSVGGQTDISIDYNIPCVSSSGTFPCPQEDSYGNWGCKGMGACSNSQGIAYWSTDLFGFYTTPTNVTLEMTGYFLPPQTGSYTFKFATVDDSAILSVGGATAFNCCAQQQPPITSTNFTIDGIKPWGGSLPPNIEGTVYMYAGYYYPMKVVYSNAVSWGTLPISVTLPDGTTVSDDFEGYVYSFDDDLSQSNCTVPDPSNY",glycan array binding signal (z-score),Gal3S(b1-3)GlcNAc,-0.339
same,glycan array binding signal (z-score),[15],-0.079
same,glycan array binding signal (z-score),[20],-0.186
